Record: PubChem BioAssay AID1224830 (NIAID, 2016)
Aim: 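Regulators of TLR4 signalling towards TNF-alpha in macrophage-like cells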 (primary screen). Cell system: human THP-1 monocytic leukaemia cells, TNF dual-luciferase reporter clone, PMA-differentiated to macrophage-like cells. Knock-down reagent: siRNA pool against human genes, 50 nM. Time to read-out: LPS for 4 h, given about 3 days after siRNA transfection. Conditions: bacterial LPS (TLR4 ligand), 10 ng/ml. Read-out: 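TNF firefly reporter luminescence divided by renilla, normalised to the plate median, then turned into a robust z-score for each replicate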. Reading the numbers: TNF reporter robust z-score: higher = stronger TNF reporter response to LPS. Rule for the call: 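Each well counts as active if its z-score is over 2.8 or under -1.5; controls are left without a call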.
In all, the deposit lists about 18,000 reagents; shown is an unselected part. About 2,900 of them (16%) count as active. 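Calls are made per well; low scores hint the gene aids the LPS response, high scores that it dampens it.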 Repeated entries: four replicate wells of each siRNA pool. No sequences are given here.

CLEC4D (C-type lectin domain family 4 member D) — TNF reporter robust z-score = 0.9; Outcome = inactive
CLEC4D (C-type lectin domain family 4 member D) — TNF reporter robust z-score = 3; Outcome = active
CLEC4D (C-type lectin domain family 4 member D) — TNF reporter robust z-score = 0.48; Outcome = inactive
CLEC4D (C-type lectin domain family 4 member D) — TNF reporter robust z-score = 2; Outcome = inactive
IQSEC3 (IQ motif and Sec7 domain ArfGEF 3) — TNF reporter robust z-score = -0.03; Outcome = inactive
IQSEC3 (IQ motif and Sec7 domain ArfGEF 3) — TNF reporter robust z-score = -0.11; Outcome = inactive
IQSEC3 (IQ motif and Sec7 domain ArfGEF 3) — TNF reporter robust z-score = 0.81; Outcome = inactive
IQSEC3 (IQ motif and Sec7 domain ArfGEF 3) — TNF reporter robust z-score = 1.39; Outcome = inactive
FIGN (fidgetin, microtubule severing factor) — TNF reporter robust z-score = -1.07; Outcome = inactive
FIGN (fidgetin, microtubule severing factor) — TNF reporter robust z-score = -1.03; Outcome = inactive
FIGN (fidgetin, microtubule severing factor) — TNF reporter robust z-score = -0.62; Outcome = inactive
FIGN (fidgetin, microtubule severing factor) — TNF reporter robust z-score = -0.78; Outcome = inactive
TTC16 (tetratricopeptide repeat domain 16) — TNF reporter robust z-score = 1.23; Outcome = inactive
TTC16 (tetratricopeptide repeat domain 16) — TNF reporter robust z-score = 1.13; Outcome = inactive
TTC16 (tetratricopeptide repeat domain 16) — TNF reporter robust z-score = 1.17; Outcome = inactive
TTC16 (tetratricopeptide repeat domain 16) — TNF reporter robust z-score = 0.94; Outcome = inactive
ACMSD (aminocarboxymuconate semialdehyde decarboxylase) — TNF reporter robust z-score = -0.99; Outcome = inactive
ACMSD (aminocarboxymuconate semialdehyde decarboxylase) — TNF reporter robust z-score = -0.82; Outcome = inactive
ACMSD (aminocarboxymuconate semialdehyde decarboxylase) — TNF reporter robust z-score = -0.12; Outcome = inactive
ACMSD (aminocarboxymuconate semialdehyde decarboxylase) — TNF reporter robust z-score = -0.35; Outcome = inactive
SCGB2B2 (secretoglobin family 2B member 2) — TNF reporter robust z-score = 2.29; Outcome = inactive
SCGB2B2 (secretoglobin family 2B member 2) — TNF reporter robust z-score = 0.78; Outcome = inactive
SCGB2B2 (secretoglobin family 2B member 2) — TNF reporter robust z-score = -0.74; Outcome = inactive
SCGB2B2 (secretoglobin family 2B member 2) — TNF reporter robust z-score = -0.78; Outcome = inactive
ZNF564 (zinc finger protein 564) — TNF reporter robust z-score = 0.22; Outcome = inactive
ZNF564 (zinc finger protein 564) — TNF reporter robust z-score = 1.25; Outcome = inactive
ZNF564 (zinc finger protein 564) — TNF reporter robust z-score = 0.1; Outcome = inactive
ZNF564 (zinc finger protein 564) — TNF reporter robust z-score = 1.32; Outcome = inactive
WSB1 (WD repeat and SOCS box containing 1) — TNF reporter robust z-score = -0.21; Outcome = inactive
WSB1 (WD repeat and SOCS box containing 1) — TNF reporter robust z-score = 0.24; Outcome = inactive
WSB1 (WD repeat and SOCS box containing 1) — TNF reporter robust z-score = -2.17; Outcome = active
WSB1 (WD repeat and SOCS box containing 1) — TNF reporter robust z-score = 0.54; Outcome = inactive
DLGAP3 (DLG associated protein 3) — TNF reporter robust z-score = -1.09; Outcome = inactive
DLGAP3 (DLG associated protein 3) — TNF reporter robust z-score = -0.71; Outcome = inactive
DLGAP3 (DLG associated protein 3) — TNF reporter robust z-score = -0.53; Outcome = inactive
DLGAP3 (DLG associated protein 3) — TNF reporter robust z-score = -1.25; Outcome = inactive
TM9SF2 (transmembrane 9 superfamily member 2) — TNF reporter robust z-score = -0.26; Outcome = inactive
TM9SF2 (transmembrane 9 superfamily member 2) — TNF reporter robust z-score = 1.3; Outcome = inactive
TM9SF2 (transmembrane 9 superfamily member 2) — TNF reporter robust z-score = -0.68; Outcome = inactive
TM9SF2 (transmembrane 9 superfamily member 2) — TNF reporter robust z-score = 0.29; Outcome = inactive
BHMT (betaine--homocysteine S-methyltransferase) — TNF reporter robust z-score = 0.58; Outcome = inactive
BHMT (betaine--homocysteine S-methyltransferase) — TNF reporter robust z-score = 0.63; Outcome = inactive
BHMT (betaine--homocysteine S-methyltransferase) — TNF reporter robust z-score = 2.33; Outcome = inactive
BHMT (betaine--homocysteine S-methyltransferase) — TNF reporter robust z-score = 0.69; Outcome = inactive
RNF186 (ring finger protein 186) — TNF reporter robust z-score = -0.73; Outcome = inactive
RNF186 (ring finger protein 186) — TNF reporter robust z-score = 0.09; Outcome = inactive
RNF186 (ring finger protein 186) — TNF reporter robust z-score = -0.01; Outcome = inactive
RNF186 (ring finger protein 186) — TNF reporter robust z-score = 0.38; Outcome = inactive
ALKBH1 (alkB homolog 1, histone H2A dioxygenase) — TNF reporter robust z-score = 1.48; Outcome = inactive
ALKBH1 (alkB homolog 1, histone H2A dioxygenase) — TNF reporter robust z-score = 3.88; Outcome = active
ALKBH1 (alkB homolog 1, histone H2A dioxygenase) — TNF reporter robust z-score = 0.74; Outcome = inactive
ALKBH1 (alkB homolog 1, histone H2A dioxygenase) — TNF reporter robust z-score = -0.33; Outcome = inactive
ASMTL (acetylserotonin O-methyltransferase like) — TNF reporter robust z-score = -1.57; Outcome = active
ASMTL (acetylserotonin O-methyltransferase like) — TNF reporter robust z-score = -1.26; Outcome = inactive
ASMTL (acetylserotonin O-methyltransferase like) — TNF reporter robust z-score = -1.44; Outcome = inactive
ASMTL (acetylserotonin O-methyltransferase like) — TNF reporter robust z-score = -1.23; Outcome = inactive
GBP2 (guanylate binding protein 2) — TNF reporter robust z-score = -0.84; Outcome = inactive
GBP2 (guanylate binding protein 2) — TNF reporter robust z-score = -1.1; Outcome = inactive
GBP2 (guanylate binding protein 2) — TNF reporter robust z-score = -1.42; Outcome = inactive
GBP2 (guanylate binding protein 2) — TNF reporter robust z-score = -1.21; Outcome = inactive

5 entries from above in another layout:
{"gene symbol": "CLEC4D (C-type lectin domain family 4 member D)", "TNF reporter robust z-score": 2, "Outcome": "inactive"}
{"gene symbol": "IQSEC3 (IQ motif and Sec7 domain ArfGEF 3)", "TNF reporter robust z-score": -0.03, "Outcome": "inactive"}
{"gene symbol": "IQSEC3 (IQ motif and Sec7 domain ArfGEF 3)", "TNF reporter robust z-score": -0.11, "Outcome": "inactive"}
{"gene symbol": "IQSEC3 (IQ motif and Sec7 domain ArfGEF 3)", "TNF reporter robust z-score": 0.81, "Outcome": "inactive"}
{"gene symbol": "IQSEC3 (IQ motif and Sec7 domain ArfGEF 3)", "TNF reporter robust z-score": 1.39, "Outcome": "inactive"}
